# According to the supplement of paper PMC11150407:
# Hit rate of the full screen: of about 3,000 compounds, about 45 (2%) showed an effect of 50% or more. The list shows a part of the results.
# Tested on: MOLM1 and UCSD/AML1 (averaged)
# Assay: cell viability relative to DMSO control (POC); higher = less growth inhibition
# Details: 1 µM; 72 h
# Description: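 Primary viability screen in the 3q26 EVI1-high AML cell lines MOLM1 and UCSD/AML1, compounds at 1 uM for 72 h. ATP CellTiter-Glo read-out given as percent viable over DMSO control (POC), averaged over duplicates. This mapping covers the TimTec NDL-3000 natural derivative library, whose compounds are identified by TimTec catalogue codes (ST...).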
row,SMILES,cell viability
1,COC(=O)C1=C(N)Oc2c(c(=O)oc3ccccc23)C1c1ccc(C(F)(F)F)cc1 (stereo unspecified),96.5%
2,COc1cc(-c2cc(=NCC3CCCO3)c3ccccc3o2)ccc1O.[O-][Cl+3]([O-])([O-])O (stereo unspecified),77.3%
3,CCCCNCC(O)c1ccc(O)cc1 (stereo unspecified),104%
4,CC(=O)OC1CCC2(C)C3CCC4(C)C(CC[C@]4(OC(C)=O)C(C)OC(C)=O)C3CC[C@H]2C1 (stereo partly specified),109%
5,CN1C(=O)C(=Cc2ccc3c(c2)OCO3)C(=O)N(C)C1=O,111%
6,C=CCN1C(=O)NC(=O)C(Cc2ccc(OC)c(OC)c2)C1=O (stereo unspecified),99.8%
7,CC(C)[C@@H]1CC[C@@H](C)C[C@H]1OC(=O)[C@@H]1CN1[C@H](C)c1ccccc1 (stereo partly specified),80.3%
8,CCOC(=O)c1c(C)n(C2CCCCC2)c2cc(Br)c(O)cc12,103%
9,COC(=O)C1=C(N)Oc2c(c(=O)oc3ccccc23)C1c1cccc(Br)c1 (stereo unspecified),98.5%
10,Cc1ccc(C2C(C#N)=C(N)Oc3c2c(=O)oc2ccccc32)o1 (stereo unspecified),101%
11,C/C=C1\C[N+]2(C)CCC34C(=C(C=O)C1CC32)Nc1ccccc14 (stereo unspecified),98%
12,O=c1[nH]c(O)c(N=Nc2cc([N+](=O)[O-])ccc2O)c(=O)[nH]1,89.2%
13,CC(O)CN1CCCCC1c1cccnc1.O.O.[Cl][Cu][Cl] (stereo unspecified),109%
14,CC(=O)c1ccc2c(c1)OCO2,98.9%
15,COc1cc2c(cc1OC)C13CCN4C(=O)C(=O)C(CC41)C1C(OCC(=O)O)CC(=O)N2C13 (stereo unspecified),90.7%
16,OCC1N2CCC(CC2)C1(O)O (stereo unspecified),32.3%
17,O=C(Cn1c(C(=O)c2ccccc2)nc2ccccc21)NCCc1ccccc1,99.4%
18,COCCOC(=O)c1c(C)n(Cc2ccccc2)c2c1cc(O)c1ccccc12,106%
19,CCCCCCCCCCn1c(C)c(C(=O)OCC)c2cc(O)ccc21,107%
20,O=c1c(/C=C2\C=Nc3ccccc32)c(O)n(-c2ccccc2)c(=O)n1-c1ccccc1,87.3%
21,CN(C)Cc1c[nH]c2cc([N+](=O)[O-])ccc12,103%
22,COC(=O)c1c(C)n(CC2CCCO2)c2ccc(O)cc12 (stereo unspecified),97%
23,NCCc1cccc(O)c1,102%
24,O=c1cccc2n1CC1CC2CN(c2nc(-c3ccccc3)cs2)C1 (stereo unspecified),98.5%

# Two neighbouring compounds out of the list so far, quoted:
row,SMILES,cell viability
21,CN(C)Cc1c[nH]c2cc([N+](=O)[O-])ccc12,103%
22,COC(=O)c1c(C)n(CC2CCCO2)c2ccc(O)cc12 (stereo unspecified),97%

# The results go on:

row,SMILES,cell viability
1,O=c1[nH]c(O)c(N=Nc2ccccc2[N+](=O)[O-])c(=O)[nH]1,108%
2,CCOC(=O)C1=C(N)Oc2c(c(=O)oc3ccccc23)C1c1cccnc1 (stereo unspecified),90.1%
3,O=C(CBr)c1cc2ccccc2oc1=O,100%
4,COC(=O)C1=C(N)Oc2c(c(=O)oc3ccccc23)C1c1ccccc1Br (stereo unspecified),99.7%
5,C/C=C1\C[N+]2(C)CCC34c5cccc(O)c5NC3C(C=O)[C@H]1CC42 (stereo partly specified),99.9%
6,CNCCc1c[nH]c2ccc(CS(=O)(=O)O)cc12,105%
7,NCCc1c[nH]c2ccc(Br)cc12,93.3%
8,Oc1ccc(CC2CC3CCN2CC3)cc1O (stereo unspecified),102%
9,CC(C)CC(=O)OCC1CCCN2CCCCC12 (stereo unspecified),103%
10,Cc1ccc2c(CN3CCNCC3)cc(=O)oc2c1,87.9%
11,C/C=C1\C[N+]2(C)CCC34c5ccccc5NC3C(/C=N/Nc3ccccc3)C1CC42 (stereo unspecified),102%
12,COC(=O)C(N)CCCN=C(N)N[N+](=O)[O-] (stereo unspecified),102%
13,Cc1c(N=Nc2c(O)[nH]c(=O)[nH]c2=O)cccc1[N+](=O)[O-],105%
14,COc1cc(C2C(C#N)=C(N)Oc3c2c(=O)oc2ccccc32)cc(OC)c1OC (stereo unspecified),100%
15,NCCc1cn2ccccc2n1,103%
16,C[N+]1(C)CCCC1c1cc(Br)cnc1N (stereo unspecified),101%
17,Cc1cccc(N2C(=O)NC(=O)/C(=C\c3cn(C)c4ccccc34)C2=O)c1,96.3%
18,CCOC(=O)C1=C(N)Oc2c(c(=O)oc3ccccc23)C1c1ccccc1Br (stereo unspecified),105%
19,CC12CCC3C(CCC4C/C(=N/O)CCC43C)C1CCC2O (stereo unspecified),92.4%
20,COc1cccc(N2C(=O)NC(=O)/C(=C\c3cc(OC)c(O)c(OC)c3)C2=O)c1,92.6%
21,CC(C)(C)C(=O)OCC1CCCN2CCCCC12 (stereo unspecified),97.6%
22,C[N+]1(CCOCC2CCC[N+]3(C)CCCCC23)CCCCC1 (stereo unspecified),97.9%
23,CCn1cc(C(=O)O)c(=O)c2cc3c(cc21)OCO3,101%
24,CC(C)CCCn1c(O)c(C(c2ccccn2)c2c(O)n(CCCC(C)C)c(=O)[nH]c2=O)c(=O)[nH]c1=O,95.1%

row,SMILES,cell viability
1,COc1cc(C(=O)ON=C2CC3CCC(C2)N3C)cc(OC)c1OC,91.7%
2,COc1cc(OC)c(OC)cc1C=C(C#N)C#N,96.2%
3,O=C(O)C1C2CC(Sc3ccccc3[N+](=O)[O-])C(Cl)C2c2cc(Cl)cc3c2N1CC1CC=CC31 (stereo unspecified),98.9%
4,CN1CC(C#N)C2(O)c3ccccc3CCC2C1 (stereo unspecified),104%
5,CC(C)C(=O)OCC1CCCN2CCCCC12 (stereo unspecified),105%
6,O=C1NC(=O)N(Cc2ccccc2)C(=O)/C1=C/c1cn(Cc2ccccc2)c2ccccc12,95.4%
7,NCCc1c[nH]c2cccc(OC(=O)c3ccc(C(=O)O)cc3)c12,92.9%
8,COC(=O)CC(NC(=S)N1C[C@@H]2C[C@@H](C1)c1cccc(=O)n1C2)C(=O)OC (stereo partly specified),92.1%
9,O=c1ccn(C(=[Se])n2ccc(=O)[nH]c2=O)c(=O)[nH]1,89.6%
10,O=C1NC(=O)C(=Cc2ccc3c(c2)OCO3)C(=O)N1,86%
11,COC(=O)CC(c1ccccc1)c1c(O)c2ccccc2oc1=O (stereo unspecified),95%
12,COc1ccc(C2C(C#N)=C(N)Oc3c2c(=O)oc2ccccc32)cc1CCc1ccc(Cl)cc1 (stereo unspecified),101%
13,Cc1ccc(C(c2c(O)c3ccccc3oc2=O)c2c(O)c3ccccc3oc2=O)cc1,102%
14,COc1cc(CC(C)=O)ccc1O,95.8%
15,OC12CCCCC1C(Cc1ccccc1)NCC2 (stereo unspecified),104%
16,O=C(O)CCCCCCCCCCCCCCCO,109%
17,C[N+]1(Cc2ccccc2)CCCC1c1ccc(N)nc1 (stereo unspecified),109%
18,O=C1NC(=O)C(=Cc2ccc([N+](=O)[O-])cc2)C(=O)N1,100%
19,COCCOC(=O)c1c(C)n(Cc2ccccc2Cl)c2ccc(O)cc12,106%
20,CCC(COC(=O)c1cc(OC)c(OC)c(OC)c1)(c1ccccc1)N(C)C (stereo unspecified),85.1%
21,COCCOC(=O)c1c(C)n(Cc2ccccc2)c2ccc(O)cc12,96.9%
22,O.O.O.O.O.O.O.O=S(=O)(O)O.OCCN1CCCCC1c1cccnc1.[Co] (stereo unspecified),106%
23,COc1ccc(CCN)cc1.Cc1ccc(-c2cc(C(=O)O)c3ccccc3n2)cc1,101%
